No constants are given. Whether binding was seen depends on the method and setting. In cells and extracts the contact can be indirect. Some entries that bind do so weakly or less than the wild type.
What was measured:
[1] = biological target: Pyruvate kinase M2 (PKM2), endogenous (human (endogenous in HeLa S3)) (UniProt P14618); assay: co-IP; anti-PKM2 antibody on Dynabeads Protein G, whole-cell lysates of HeLa S3 cells (150 mM NaCl, 0.5% NP-40) not treated or treated with 100 nM indirubin for 1 h; normal rabbit IgG as control; western blotting
[2] = biological target: E2 subunit of pyruvate dehydrogenase complex (PDC-E2), endogenous (human (endogenous in HeLa S3)) (UniProt P10515); assay: co-IP; chromatin fraction of HeLa S3 cells incubated with anti-AhR (N-19) or anti-PDC-E2 (ab110332) antibody, protein G-Agarose, 4°C; normal goat or mouse IgG as control; western blotting
[3] = biological target: FLAG-HA-tagged pyruvate kinase M2 (ePKM2) (human) (UniProt P14618); assay: co-IP; FLAG-HA-tagged bait purified on anti-FLAG antibody-conjugated agarose from the solubilized chromatin fraction of stably transduced HeLa S3 cells treated with 100 nM indirubin for 3 h; western blotting; mock purification from non-transduced cells
[4] = biological target: FLAG-HA-tagged arylhydrocarbon receptor (eAhR) (human) (UniProt P35869); assay: as above
[5] = biological target: Arylhydrocarbon receptor (AhR), endogenous (human (endogenous in HeLa S3)) (UniProt P35869); assay: co-IP; chromatin fraction of HeLa S3 cells incubated with anti-AhR (N-19) or anti-PDC-E2 (ab110332) antibody, protein G-Agarose, 4°C; normal goat or mouse IgG as control; western blotting
[6] = biological target: FLAG-HA-tagged arylhydrocarbon receptor (eAhR) (human) (UniProt P35869); assay: co-IP; eAhR purified on anti-FLAG antibody-conjugated agarose from whole-cell lysates of eAhR-expressing HeLa S3 cells not treated or treated with 100 nM indirubin for 3 h; western blotting

Sequences of proteins named here, by UniProt entry; tags and fusion partners are left off. Residues count along the entry.
UniProt P14618: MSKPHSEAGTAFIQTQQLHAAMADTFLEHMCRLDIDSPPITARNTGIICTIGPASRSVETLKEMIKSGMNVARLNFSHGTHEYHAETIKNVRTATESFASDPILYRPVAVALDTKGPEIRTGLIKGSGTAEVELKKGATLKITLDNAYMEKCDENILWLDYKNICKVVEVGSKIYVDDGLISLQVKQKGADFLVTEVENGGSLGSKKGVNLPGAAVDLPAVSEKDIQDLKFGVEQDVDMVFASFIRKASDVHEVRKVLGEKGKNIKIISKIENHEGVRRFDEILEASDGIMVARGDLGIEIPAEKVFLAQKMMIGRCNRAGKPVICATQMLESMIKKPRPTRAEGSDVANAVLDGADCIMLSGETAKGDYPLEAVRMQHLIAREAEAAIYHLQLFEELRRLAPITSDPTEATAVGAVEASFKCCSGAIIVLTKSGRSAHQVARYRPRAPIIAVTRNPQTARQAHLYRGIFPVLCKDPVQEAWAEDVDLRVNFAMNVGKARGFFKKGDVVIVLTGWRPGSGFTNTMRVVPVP
UniProt P10515, residues 87-647: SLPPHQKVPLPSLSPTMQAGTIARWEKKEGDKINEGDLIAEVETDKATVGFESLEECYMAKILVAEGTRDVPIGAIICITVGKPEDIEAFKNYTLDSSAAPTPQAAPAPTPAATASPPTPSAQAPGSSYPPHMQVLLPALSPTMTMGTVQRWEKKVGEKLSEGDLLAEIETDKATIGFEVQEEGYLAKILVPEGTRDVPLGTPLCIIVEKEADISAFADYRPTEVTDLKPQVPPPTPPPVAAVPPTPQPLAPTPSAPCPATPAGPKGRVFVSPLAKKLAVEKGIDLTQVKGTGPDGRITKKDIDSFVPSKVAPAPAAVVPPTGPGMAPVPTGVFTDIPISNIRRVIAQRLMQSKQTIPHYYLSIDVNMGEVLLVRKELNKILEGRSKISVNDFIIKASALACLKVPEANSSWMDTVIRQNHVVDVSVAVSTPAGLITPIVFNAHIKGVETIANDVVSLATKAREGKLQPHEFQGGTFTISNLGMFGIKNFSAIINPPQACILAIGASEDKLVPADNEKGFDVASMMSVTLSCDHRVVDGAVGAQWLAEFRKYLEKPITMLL
UniProt P35869, residues 11-848: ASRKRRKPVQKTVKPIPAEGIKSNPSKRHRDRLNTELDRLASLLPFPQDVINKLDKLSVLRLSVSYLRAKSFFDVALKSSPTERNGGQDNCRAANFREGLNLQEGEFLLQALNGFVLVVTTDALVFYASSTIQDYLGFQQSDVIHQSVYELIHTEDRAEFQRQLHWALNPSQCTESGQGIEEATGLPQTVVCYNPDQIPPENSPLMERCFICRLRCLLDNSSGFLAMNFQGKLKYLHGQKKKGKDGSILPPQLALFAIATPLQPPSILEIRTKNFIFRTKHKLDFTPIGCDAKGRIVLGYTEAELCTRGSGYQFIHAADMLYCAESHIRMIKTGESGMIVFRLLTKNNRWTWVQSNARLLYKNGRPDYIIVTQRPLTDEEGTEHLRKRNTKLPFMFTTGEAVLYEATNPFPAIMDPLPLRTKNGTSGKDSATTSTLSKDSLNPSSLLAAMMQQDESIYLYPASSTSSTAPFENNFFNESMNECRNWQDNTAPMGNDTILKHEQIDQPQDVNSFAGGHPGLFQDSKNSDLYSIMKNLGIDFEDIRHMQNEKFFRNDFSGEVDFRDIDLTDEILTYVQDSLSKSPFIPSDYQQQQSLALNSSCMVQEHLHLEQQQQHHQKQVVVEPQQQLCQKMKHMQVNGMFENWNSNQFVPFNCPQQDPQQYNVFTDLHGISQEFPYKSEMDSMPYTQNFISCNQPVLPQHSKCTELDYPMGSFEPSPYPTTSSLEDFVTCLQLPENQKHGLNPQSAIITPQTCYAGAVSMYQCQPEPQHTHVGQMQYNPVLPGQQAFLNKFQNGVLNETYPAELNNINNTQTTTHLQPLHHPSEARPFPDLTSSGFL
UniProt Q09472: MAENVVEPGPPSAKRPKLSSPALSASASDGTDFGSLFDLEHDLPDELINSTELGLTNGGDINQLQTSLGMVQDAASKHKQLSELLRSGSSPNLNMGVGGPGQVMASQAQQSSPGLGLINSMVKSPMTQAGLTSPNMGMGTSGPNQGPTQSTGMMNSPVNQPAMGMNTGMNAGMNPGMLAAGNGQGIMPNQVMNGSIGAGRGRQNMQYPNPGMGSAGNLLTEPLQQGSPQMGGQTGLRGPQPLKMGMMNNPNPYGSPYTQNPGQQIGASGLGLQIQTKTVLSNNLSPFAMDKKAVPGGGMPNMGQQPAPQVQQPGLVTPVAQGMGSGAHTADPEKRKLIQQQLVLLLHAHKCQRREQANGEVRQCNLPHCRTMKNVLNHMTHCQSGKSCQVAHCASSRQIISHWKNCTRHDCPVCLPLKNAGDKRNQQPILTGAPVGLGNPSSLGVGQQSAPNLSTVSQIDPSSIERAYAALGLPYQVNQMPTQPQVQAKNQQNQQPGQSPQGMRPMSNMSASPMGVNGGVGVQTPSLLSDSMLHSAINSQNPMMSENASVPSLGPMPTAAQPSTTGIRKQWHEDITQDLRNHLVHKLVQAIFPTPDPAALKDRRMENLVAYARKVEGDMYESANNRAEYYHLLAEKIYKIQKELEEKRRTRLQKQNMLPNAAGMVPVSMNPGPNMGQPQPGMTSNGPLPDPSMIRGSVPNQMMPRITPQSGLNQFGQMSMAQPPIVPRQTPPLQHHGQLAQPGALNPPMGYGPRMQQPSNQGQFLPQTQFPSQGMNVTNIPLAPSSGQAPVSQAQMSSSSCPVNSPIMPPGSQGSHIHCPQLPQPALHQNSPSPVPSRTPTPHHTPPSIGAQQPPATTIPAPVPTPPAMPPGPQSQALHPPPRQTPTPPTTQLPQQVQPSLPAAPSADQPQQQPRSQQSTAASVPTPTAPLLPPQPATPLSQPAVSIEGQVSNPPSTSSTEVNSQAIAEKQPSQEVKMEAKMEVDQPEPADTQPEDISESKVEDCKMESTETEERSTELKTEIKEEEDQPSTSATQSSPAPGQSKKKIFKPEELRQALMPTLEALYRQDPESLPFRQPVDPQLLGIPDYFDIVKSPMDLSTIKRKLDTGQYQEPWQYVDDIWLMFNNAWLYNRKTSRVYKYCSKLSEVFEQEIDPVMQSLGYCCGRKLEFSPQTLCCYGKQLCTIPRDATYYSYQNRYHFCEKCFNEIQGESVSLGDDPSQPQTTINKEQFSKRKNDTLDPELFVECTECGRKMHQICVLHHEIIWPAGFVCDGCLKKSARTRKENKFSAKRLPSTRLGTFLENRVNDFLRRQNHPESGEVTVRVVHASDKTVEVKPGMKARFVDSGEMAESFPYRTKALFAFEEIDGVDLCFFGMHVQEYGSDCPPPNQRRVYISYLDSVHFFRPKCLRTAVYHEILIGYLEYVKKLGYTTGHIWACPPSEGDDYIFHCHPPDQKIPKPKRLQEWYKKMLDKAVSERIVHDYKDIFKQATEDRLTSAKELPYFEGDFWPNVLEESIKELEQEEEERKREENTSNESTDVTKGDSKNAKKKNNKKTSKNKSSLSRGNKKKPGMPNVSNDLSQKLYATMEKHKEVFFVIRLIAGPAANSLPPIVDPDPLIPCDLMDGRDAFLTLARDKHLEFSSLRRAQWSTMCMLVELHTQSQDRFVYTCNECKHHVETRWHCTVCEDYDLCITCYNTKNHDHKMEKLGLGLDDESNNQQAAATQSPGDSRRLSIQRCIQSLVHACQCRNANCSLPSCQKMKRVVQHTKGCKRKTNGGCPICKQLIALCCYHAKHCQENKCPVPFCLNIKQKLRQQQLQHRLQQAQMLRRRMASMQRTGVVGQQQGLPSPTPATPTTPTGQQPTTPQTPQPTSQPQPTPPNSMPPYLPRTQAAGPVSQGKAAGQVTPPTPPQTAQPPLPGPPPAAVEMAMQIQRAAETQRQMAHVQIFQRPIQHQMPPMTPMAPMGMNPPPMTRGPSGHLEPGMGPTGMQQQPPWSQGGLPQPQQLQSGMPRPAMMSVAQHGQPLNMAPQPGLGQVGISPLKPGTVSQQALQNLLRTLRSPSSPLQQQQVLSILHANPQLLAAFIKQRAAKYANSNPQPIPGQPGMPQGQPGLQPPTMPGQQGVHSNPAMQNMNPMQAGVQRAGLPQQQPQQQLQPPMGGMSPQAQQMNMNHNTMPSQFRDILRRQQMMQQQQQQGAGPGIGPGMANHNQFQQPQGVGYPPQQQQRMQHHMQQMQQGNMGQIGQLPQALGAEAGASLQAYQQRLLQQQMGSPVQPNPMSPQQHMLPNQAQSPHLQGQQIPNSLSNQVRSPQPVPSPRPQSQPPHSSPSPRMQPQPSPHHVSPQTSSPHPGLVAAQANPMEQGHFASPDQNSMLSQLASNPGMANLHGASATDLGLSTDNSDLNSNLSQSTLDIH

| binding [1] | binding [2] | binding [3] | binding [4] | binding [5] | binding [6] | Substance |
| --- | --- | --- | --- | --- | --- | --- |
| binds | binds | binds |  |  |  | Arylhydrocarbon receptor (AhR), endogenous (from UniProt P35869 11-848) |
|  |  | binds | binds |  |  | Histone acetyltransferase p300, endogenous (from UniProt Q09472 1-2414) |
|  |  |  | binds | binds | binds | Pyruvate kinase M2 (PKM2), endogenous (from UniProt P14618 1-531) |

— article PMC4737187
